Out of some 410,000 compounds screened, about 18,000 (4.4%) were called active. The shares of active, inactive and inconclusive entries below differ from those in the screen. No stated cut-off is given here; in the data, active means activity change below about -60%; inconclusive means no clear call, values can overlap the other calls; inactive means above about -39%.
Experiment: qHTS Assay for inhibitors of the human cytomegalovirus (HCMV)
Conditions: HFF cells, HCMV-luciferase reporter, 72 h; at 57.5 µM; active compounds read low
Summary of the method: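 Two compound doses tested in HFFs infected with HCMV-luciferase, MOI 1 PFU/cell, 72 h at 37C. Lysate luminescence read with OneGlo; data normalized against buffer-only and 10uM Salinomycin inhibitor controls.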
In the case of CCCCOc1ccc(C(=O)NCc2nnnn2-c2ccc(C)c(C)c2)cc1, the activity change, negative = inhibition is reported as inactive: 102%. For O=C1CN=C(c2ccccc2)c2cc(Cl)ccc2N1Cc1ccc(Cl)cc1, the activity change, negative = inhibition was inconclusive: -45.3%. For Cc1cccc(N2CCN(C(=O)c3c(C)nn(Cc4ccccc4Cl)c3C)CC2)c1C, the activity change, negative = inhibition was inconclusive: -41.5%. With CC(Oc1ccc(Cl)cc1Cl)c1ccnc2nc(N3CCOCC3)nn12 (stereo not drawn) the activity change, negative = inhibition was active: -77.4%. For CCCc1cc(=O)[nH]c(SCC(=O)NCCC2=CCCCC2)n1, the activity change, negative = inhibition was inconclusive: -41%. In the case of CCC1=C(c2ccc(C)cc2)S(=O)(=O)N=C1N1CCC(C(=O)NCc2ccc(N(C)C)cc2)CC1, the activity change, negative = inhibition is reported as inactive: 20.1%. For COc1c(/C=N/Nc2ccc(C(=O)O)cc2)c(CCN(C)C(C)=O)cc2c1OCO2, the activity change, negative = inhibition was inconclusive: -44.5%. For COC(=O)C1=C(c2cc3ccccc3o2)C[C@@H]2CC[C@H]1N2C, the activity change, negative = inhibition was inconclusive: -54.4%. With COc1ccc(OC)c(S(=O)(=O)Nc2c(C)cccc2C)c1 the activity change, negative = inhibition was inconclusive: -42.7%. With CN(C(=S)Oc1ccc(C(=O)Nc2ccccc2)cc1)c1ccccc1 the activity change, negative = inhibition was active: -67.2%. For CCN1CCC(O)(/C=C/c2ccc(C)cc2)C(C(=O)/C=C/c2ccc(C)cc2)C1 (stereo not drawn), the activity change, negative = inhibition was active: -101%. In the case of CCCCCn1c(=O)c2ccccc2n2c(=S)[nH]nc12, the activity change, negative = inhibition is reported as inconclusive: -51.9%. In the case of CCCC(=O)Nc1nc2c(s1)COc1ccccc1-2, the activity change, negative = inhibition is reported as inconclusive: -40.9%. For O=S(=O)(Nc1cc(Sc2cccc3cccnc23)c(O)c2ccccc12)c1ccc(F)cc1, the activity change, negative = inhibition was active: -100%. For S=C(Nc1ccc(-c2nc3ccccc3[nH]2)cc1)Nc1cccnc1, the activity change, negative = inhibition was inactive: -22.2%. In the case of O=C(O)c1ccc(S(=O)(=O)N2CCc3ccccc3C2)cc1, the activity change, negative = inhibition is reported as inconclusive: -48.6%. In the case of O=C(c1ccccc1Cl)N1CCN(S(=O)(=O)c2cccs2)CC1, the activity change, negative = inhibition is reported as inactive: 21.4%. In the case of CC(C)(C)c1ccc(NC(=O)N2CCCN(c3ccc([N+](=O)[O-])cn3)CC2)cc1, the activity change, negative = inhibition is reported as active: -73%. For CC(=O)NC(C)Cc1ccccc1 (stereo not drawn), the activity change, negative = inhibition was inactive: 0.563%. For CCOc1ccccc1CNC(=O)c1oc2c(c1C)-c1nn(Cc3cccc(Cl)c3)cc1CC2, the activity change, negative = inhibition was inactive: 9.46%. For NNC(=O)CCN(Cc1ccco1)S(=O)(=O)c1ccc(Cl)cc1, the activity change, negative = inhibition was active: -66.6%. For COc1ccc(C(=O)N(Cc2ccccc2)c2cccc(C)c2)c(OC)c1OC, the activity change, negative = inhibition was inactive: -36.4%. In the case of O=C(Cc1ccccc1)N/N=C/c1cc(Br)cc(Cl)c1O, the activity change, negative = inhibition is reported as inactive: -18.5%. For COc1ccccc1Nc1ccc(NC(=O)c2cccc([N+](=O)[O-])c2C)cc1, the activity change, negative = inhibition was active: -62.4%. With O=C(Nc1cccc(OCc2cc(=O)n3ccccc3n2)c1)Nc1cccc(C(F)(F)F)c1 the activity change, negative = inhibition was inactive: -34.1%. With CN(C)C(=C(C#N)C#N)N1CCN(c2ccc(Cl)c(Cl)c2)CC1 the activity change, negative = inhibition was inconclusive: -51.7%. In the case of O=C(Cc1ccc(NC(=O)N2CCSc3ncccc32)cc1)NCc1cccc(Cl)c1, the activity change, negative = inhibition is reported as inconclusive: 0%. In the case of COc1ccc(S(=O)(=O)NC(C)C(=O)Nc2ccccc2)cc1Cl (stereo not drawn), the activity change, negative = inhibition is reported as inconclusive: -55.3%. For CC(=O)N1c2ccc(S(=O)(=O)N3CCCC(C(=O)NCc4ccc(Cl)cc4)C3)cc2CC1C (stereo not drawn), the activity change, negative = inhibition was active: -75.8%. With CSc1ccccc1NC(=O)COc1ccc2c(c1)OCO2 the activity change, negative = inhibition was inactive: 0%. In the case of CCC(=O)N1CCc2cc(Br)cc(S(=O)(=O)CCC(=O)Nc3ccc(Cl)cc3)c21, the activity change, negative = inhibition is reported as inactive: -4.33%. With Cc1cc(SCC(=O)Nc2ccc(O)cc2)n2nc(C)c(-c3ccccc3)c2n1 the activity change, negative = inhibition was active: -61.9%. For COc1ccc(CC(=O)Oc2ccccc2C)cc1S(=O)(=O)N1CCOCC1, the activity change, negative = inhibition was inconclusive: -56.6%. With N#Cc1ccc(NC(=O)C2Cc3ccccc3CN2S(=O)(=O)c2ccc(F)cc2)cc1 (stereo not drawn) the activity change, negative = inhibition was inactive: -17.1%. For O=C(COc1ccc(F)cc1)Nc1ccc2nc(SCCOc3ccccc3)sc2c1, the activity change, negative = inhibition was inconclusive: -45.4%. With CC1CC(C)CN(c2oc(-c3ccccc3F)nc2C#N)C1 (stereo not drawn) the activity change, negative = inhibition was inconclusive: -48.5%. With CCOC(=O)c1ccc(NC(=O)c2ccc(NS(C)(=O)=O)cc2)cc1 the activity change, negative = inhibition was inconclusive: -41.5%. With COc1ccc(OC)c(CC2C(=O)Nc3ccc(Br)cc32)c1 (stereo not drawn) the activity change, negative = inhibition was active: -90.2%. With CCOC(OCC)c1nc(N)[nH]c(=O)c1CCCCc1ccccc1 the activity change, negative = inhibition was inconclusive: -46%. For CC(C)N(c1ccccc1)c1ccc(NC(=O)COC(=O)CCN2C(=O)c3cccc([N+](=O)[O-])c3C2=O)cc1, the activity change, negative = inhibition was inconclusive: -48.9%. For N/C(=N\OC(=O)c1ccccc1)c1ccccn1, the activity change, negative = inhibition was inactive: 0%. With COc1ccc(-n2c(C)cc(C(=O)CN3C(=O)NC4(CCc5ccccc54)C3=O)c2C)cc1 (stereo not drawn) the activity change, negative = inhibition was inconclusive: -54.1%. For O=C(/C=C/c1ccc(Br)cc1)NCc1cccs1, the activity change, negative = inhibition was active: -61%.
On the % scale 0 is the no-effect control and ±100 the full control effect.
